Laboratory results taken from patent publication US20250154171A1, “RAS INHIBITORS” (Revolution Medicines, Inc., priority 2023, published 2025).
Some results were stated once for a whole list of compounds, not compound by compound.

Sequences of proteins named here, by UniProt entry; tags and fusion partners are left off. A change or cut given only in a name is not applied to a line headed by its entry. Residues count along the entry.
UniProt P01116, 1-188 isoform P01116-2 G12V: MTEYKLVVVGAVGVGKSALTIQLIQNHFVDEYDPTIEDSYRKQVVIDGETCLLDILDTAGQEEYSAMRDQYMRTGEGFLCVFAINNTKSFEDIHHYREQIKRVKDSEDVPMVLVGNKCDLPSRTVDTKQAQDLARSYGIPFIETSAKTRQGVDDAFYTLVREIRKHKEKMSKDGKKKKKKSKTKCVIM
UniProt P01116, 1-188 isoform P01116-2 G12A: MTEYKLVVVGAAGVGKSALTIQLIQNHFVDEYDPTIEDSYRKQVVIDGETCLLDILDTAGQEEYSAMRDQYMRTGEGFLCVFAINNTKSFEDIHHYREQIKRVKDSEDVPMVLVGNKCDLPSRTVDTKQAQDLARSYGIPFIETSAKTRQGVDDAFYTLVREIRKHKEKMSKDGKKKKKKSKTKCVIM
UniProt P62937, whole entry: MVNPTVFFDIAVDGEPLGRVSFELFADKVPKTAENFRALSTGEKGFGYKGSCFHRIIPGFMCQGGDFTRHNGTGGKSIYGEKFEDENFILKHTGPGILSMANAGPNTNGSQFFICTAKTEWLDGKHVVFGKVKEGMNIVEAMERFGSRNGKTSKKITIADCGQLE

Key:
K-RasG12V = K-RasG12V (Homo sapiens, UniProt P01116+P62937, G12V); assay: Disruption of BRAF RBD interaction with K-Ras (TR-FRET / MOA assay), K-RasG12V; assay type: biochemical; settings: TR-FRET with cyclophilin A and GST-BRAF RBD, read-out: IC50 with respect to K-RasG12V (disruption of BRAF RBD interaction)
K-RasG12A = K-RasG12A (Homo sapiens, UniProt P01116+P62937, G12A); assay: Disruption of BRAF RBD interaction with K-Ras (TR-FRET / MOA assay), K-RasG12A; assay type: biochemical; settings: TR-FRET with cyclophilin A and GST-BRAF RBD, read-out: IC50 with respect to K-RasG12A (disruption of BRAF RBD interaction)
Capan-1 (K-Ras G12V) = assay: CellTiter-Glo cell viability assay, Capan-1; assay type: cell-based, human; settings: 5-day treatment, Capan-1 and/or NCI-H2009 versus A375

SMILES	IC50 (K-RasG12V)	IC50 (K-RasG12A)	decrease in cell viability with respect to Capan-1 and/or NCI-H2009 versus wild-type KRAS (A375) (Capan-1 (K-Ras G12V))
CO[C@@H](C)c1ncccc1-c1c2c3cc(ccc3n1C1CN(C3CC3)C1)-c1csc(n1)[C@@H](N1CC3(CCCN3C3CCOCC3)C1)[C@H](NC(=O)[C@@H]1[C@@H](C)[C@H]1c1ccncn1)C(=O)N1CCC[C@H](N1)C(=O)OCC(C)(C)C2 (atropisomer, axis not shown) [Example A1050]	< 1000 nM	< 1000 nM	greater decrease in cell viability
CO[C@@H](C)c1ncccc1-c1c2c3cc(ccc3n1C1CN(C3CC3)C1)-c1csc(n1)[C@@H](N1CC3(CCCN3C)C1)[C@H](NC(=O)[C@@H]1[C@@H](C)[C@H]1c1ccncn1)C(=O)N1CCC[C@H](N1)C(=O)OCC(C)(C)C2 (atropisomer, axis not shown) [Example A1051]	< 1000 nM	< 1000 nM	greater decrease in cell viability
CO[C@@H](C)c1ncccc1-c1c2c3cc(ccc3n1C1CN(C3CC3)C1)-c1csc(n1)[C@@H](N1CC3(CCCN3C3COC3)C1)[C@H](NC(=O)[C@H]1[C@H](C)[C@@H]1C)C(=O)N1CCC[C@H](N1)C(=O)OCC(C)(C)C2 (atropisomer, axis not shown) [Example A1052]	< 1000 nM	< 1000 nM	greater decrease in cell viability
CO[C@@H](C)c1ncccc1-c1c2c3cc(ccc3n1C1CN(C3CC3)C1)-c1csc(n1)[C@@H](N1CC3(CCCN3C)C1)[C@H](NC(=O)[C@H]1[C@H](C)[C@@H]1C)C(=O)N1CCC[C@H](N1)C(=O)OCC(C)(C)C2 (atropisomer, axis not shown) [Example A1053]	< 1000 nM	< 1000 nM	greater decrease in cell viability
CO[C@@H](C)c1ncccc1-c1c2c3cc(ccc3n1C1CN(C3CC3)C1)-c1csc(n1)[C@@H](N1CC3(CC(F)C3)C1)[C@H](NC(=O)[C@H]1[C@H](C)[C@@H]1C)C(=O)N1CCC[C@H](N1)C(=O)OCC(C)(C)C2 (atropisomer, axis not shown) [Example A1054]	< 1000 nM	< 1000 nM	greater decrease in cell viability
CO[C@@H](C)c1ncccc1-c1c2c3cc(ccc3n1C1CN(C3CC3)C1)-c1csc(n1)[C@@H](OCC1CCOCC1)[C@H](NC(=O)[C@H]1[C@H](C)[C@@H]1C)C(=O)N1CCC[C@H](N1)C(=O)OCC(C)(C)C2 (atropisomer, axis not shown) [Example A1055]	< 1000 nM	< 1000 nM	greater decrease in cell viability
CO[C@@H](C)c1ncccc1-c1c2c3cc(ccc3n1C1CN(C3CC3)C1)-c1csc(n1)[C@@H](OC1CCOCC1)[C@H](NC(=O)[C@H]1[C@H](C)[C@@H]1C)C(=O)N1CCC[C@H](N1)C(=O)OCC(C)(C)C2 (atropisomer, axis not shown) [Example A1056]	< 1000 nM	< 1000 nM	greater decrease in cell viability
CO[C@@H](C)c1ncccc1-c1c2c3cc(ccc3n1C1CN(C3CC3)C1)-c1csc(n1)[C@@H](N1CC3(CC(F)C3)C1)[C@H](NC(=O)[C@@H]1[C@@H](C)[C@H]1c1ccncn1)C(=O)N1CCC[C@H](N1)C(=O)OCC(C)(C)C2 (atropisomer, axis not shown) [Example A1058]	< 1000 nM	< 1000 nM	greater decrease in cell viability
CO[C@@H](C)c1ncccc1-c1c2c3cc(ccc3n1C1CN(C3CC3)C1)-c1csc(n1)[C@@H](OCC1CCOCC1)[C@H](NC(=O)[C@@H]1[C@@H](C)[C@H]1c1ccncn1)C(=O)N1CCC[C@H](N1)C(=O)OCC(C)(C)C2 (atropisomer, axis not shown) [Example A1059]	< 1000 nM	< 1000 nM	greater decrease in cell viability
CO[C@@H](C)c1ncccc1-c1c2c3cc(ccc3n1C1CN(C3CC3)C1)-c1csc(n1)[C@@H](OCC1CCCCC1)[C@H](NC(=O)[C@@H]1[C@@H](C)[C@H]1c1ccncn1)C(=O)N1CCC[C@H](N1)C(=O)OCC(C)(C)C2 (atropisomer, axis not shown) [Example A1060]	< 1000 nM	< 1000 nM	greater decrease in cell viability
CO[C@@H](C)c1ncccc1-c1c2c3cc(ccc3n1C1CN(C3CC3)C1)-c1csc(n1)[C@@H](OC1CCOCC1)[C@H](NC(=O)[C@@H]1[C@@H](C)[C@H]1c1ccncn1)C(=O)N1CCC[C@H](N1)C(=O)OCC(C)(C)C2 (atropisomer, axis not shown) [Example A1061]	< 1000 nM	< 1000 nM	greater decrease in cell viability
CO[C@@H](C)c1ncccc1-c1c2c3cc(ccc3n1C1CN(C3CC3)C1)-c1csc(n1)[C@@H](OCc1cncs1)[C@H](NC(=O)[C@@H]1[C@@H](C)[C@H]1c1ccncn1)C(=O)N1CCC[C@H](N1)C(=O)OCC(C)(C)C2 (atropisomer, axis not shown) [Example A1062]	< 1000 nM	< 1000 nM	greater decrease in cell viability
CO[C@@H](C)c1ncccc1-c1c2c3cc(ccc3n1C1CN(C3CC3)C1)-c1csc(n1)[C@@H](N1CC3(COC3)C1)[C@H](NC(=O)[C@H]1[C@H](C)[C@@H]1C(C)C)C(=O)N1CCC[C@H](N1)C(=O)OCC(C)(C)C2 (atropisomer, axis not shown) [Example A1063]	< 1000 nM	< 1000 nM	greater decrease in cell viability
CO[C@@H](C)c1ncccc1-c1c2c3cc(ccc3n1C1CN(C3CC3)C1)-c1csc(n1)[C@@H](N1CC3(COC3)C1)[C@H](NC(=O)[C@@H]1[C@@H](C)[C@H]1C(C)C)C(=O)N1CCC[C@H](N1)C(=O)OCC(C)(C)C2 (atropisomer, axis not shown) [Example A1064]	< 1000 nM	< 1000 nM	greater decrease in cell viability
CO[C@@H](C)c1ncccc1-c1c2c3cc(ccc3n1C1CN(C3CC3)C1)-c1csc(n1)[C@@H](N1CC3(CCCN3C3CCN(C)CC3)C1)[C@H](NC(=O)[C@@H]1[C@@H](C)[C@H]1c1ccncn1)C(=O)N1CCC[C@H](N1)C(=O)OCC(C)(C)C2 (atropisomer, axis not shown) [Example A1065]	< 1000 nM	< 1000 nM	greater decrease in cell viability
CO[C@@H](C)c1ncccc1-c1c2c3cc(ccc3n1C1CN(C3CC3)C1)-c1csc(n1)[C@@H](N1CC3(CN(C)C3)C1)[C@H](NC(=O)[C@H]1[C@H](C)[C@@H]1C)C(=O)N1CCC[C@H](N1)C(=O)OCC(C)(C)C2 (atropisomer, axis not shown) [Example A1066]	< 1000 nM	< 1000 nM	greater decrease in cell viability
CO[C@@H](C)c1ncccc1-c1c2c3cc(ccc3n1C1CN(C3CC3)C1)-c1csc(n1)[C@@H](OCc1ccncc1)[C@H](NC(=O)[C@H]1[C@H](C)[C@@H]1C)C(=O)N1CCC[C@H](N1)C(=O)OCC(C)(C)C2 (atropisomer, axis not shown) [Example A1068]	< 1000 nM	< 1000 nM	greater decrease in cell viability
CO[C@@H](C)c1ncccc1-c1c2c3cc(ccc3n1C1CN(C3CC3)C1)-c1coc(n1)[C@@H](OCc1ccncc1)[C@H](NC(=O)[C@H]1[C@H](C)[C@@H]1C)C(=O)N1CCC[C@H](N1)C(=O)OCC(C)(C)C2 (atropisomer, axis not shown) [Example A1070]	< 1000 nM	< 1000 nM	greater decrease in cell viability
CO[C@@H](C)c1ncccc1-c1c2c3cc(ccc3n1C1CN(C3CC3)C1)-c1csc(n1)[C@@H](OCc1cccnc1)[C@H](NC(=O)[C@@H]1[C@@H](C)[C@H]1c1ccncn1)C(=O)N1CCC[C@H](N1)C(=O)OCC(C)(C)C2 (atropisomer, axis not shown) [Example A1071]	< 1000 nM	< 1000 nM	greater decrease in cell viability
CO[C@@H](C)c1ncccc1-c1c2c3cc(ccc3n1C1CN(C3CC3)C1)-c1csc(n1)[C@@H](OCc1ccncc1)[C@H](NC(=O)[C@@H]1[C@@H](C)[C@H]1c1ccncn1)C(=O)N1CCC[C@H](N1)C(=O)OCC(C)(C)C2 (atropisomer, axis not shown) [Example A1072]	< 1000 nM	< 1000 nM	greater decrease in cell viability
CO[C@@H](C)c1ncccc1-c1c2c3cc(ccc3n1C1CN(C3CC3)C1)-c1coc(n1)[C@@H](OCc1cccnc1)[C@H](NC(=O)[C@@H]1[C@@H](C)[C@H]1c1ccncn1)C(=O)N1CCC[C@H](N1)C(=O)OCC(C)(C)C2 (atropisomer, axis not shown) [Example A1073]	< 1000 nM	< 1000 nM	greater decrease in cell viability
CO[C@@H](C)c1ncccc1-c1c2c3cc(ccc3n1C1CN(C3CC3)C1)-c1coc(n1)[C@@H](OCc1ccncc1)[C@H](NC(=O)[C@@H]1[C@@H](C)[C@H]1c1ccncn1)C(=O)N1CCC[C@H](N1)C(=O)OCC(C)(C)C2 (atropisomer, axis not shown) [Example A1074]	< 1000 nM	< 1000 nM	greater decrease in cell viability
